Experimental data taken from PMC7824566.
Results are given in words; binding and its absence hold for the method and conditions named. A result given as binding can be weak or reduced; the word gives no strength.

Sequences of proteins named here, by UniProt entry; tags and fusion partners are left off. A change or cut given only in a name is not applied to a line headed by its entry.
UniProt Q94IB6: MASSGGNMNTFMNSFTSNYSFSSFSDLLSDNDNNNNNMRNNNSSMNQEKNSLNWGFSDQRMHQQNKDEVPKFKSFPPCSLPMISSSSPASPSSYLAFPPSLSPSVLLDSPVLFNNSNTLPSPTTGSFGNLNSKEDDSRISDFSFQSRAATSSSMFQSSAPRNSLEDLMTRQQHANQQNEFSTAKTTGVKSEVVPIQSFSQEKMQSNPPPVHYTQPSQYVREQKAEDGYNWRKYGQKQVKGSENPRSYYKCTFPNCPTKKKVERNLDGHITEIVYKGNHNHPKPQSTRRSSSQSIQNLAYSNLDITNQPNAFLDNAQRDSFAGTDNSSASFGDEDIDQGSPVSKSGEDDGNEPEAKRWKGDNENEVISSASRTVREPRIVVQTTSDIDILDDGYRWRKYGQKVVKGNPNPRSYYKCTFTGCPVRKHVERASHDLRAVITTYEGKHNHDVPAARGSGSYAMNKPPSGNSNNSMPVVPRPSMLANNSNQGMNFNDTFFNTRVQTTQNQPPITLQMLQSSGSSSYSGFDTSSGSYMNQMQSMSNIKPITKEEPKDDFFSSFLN

Biological target: GST-WIPK (wound-induced protein kinase) (Nicotiana tabacum)
Experiment: pull-down; GST-NtMAPKs on Glutathione Sepharose 4 Fast Flow used to pull down MBP-NtWRKYs in vitro, 2 h at 4 °C; Western blot with anti-MBP antibody; both purified

binding: binds
Substance: MBP-NtWRKY6 (from UniProt Q94IB6)
